The target in test [1] is UBE3A (yeast two-hybrid bait, pDEST32-UBE3A) (human) (UniProt Q05086). The test can be described thus: two-hybrid; library screen in yeast strain Mav203; E3 ligase bait in pDEST32, prey library of over 20,000 human ORFs in pDEST22; positive colonies survived on SD-4 (deficient in Ura, His, Leu and Trp) plates and were blue with X-Gal; hits identified by sequencing.
Test [2] has as its target UFL1 (yeast two-hybrid bait, pDEST32-UFL1) (human) (UniProt O94874). The description is as above.
Another test deals with GST-UFL1 (human) (UniProt O94874). The test can be described thus: pull-down; GST pull-down: purified GST-UFL1 (20 ug) and substrate-Flag-His6 (20 ug) with Glutathione Sepharose 4B beads, 4 °C overnight, 20 mM Tris-Cl, 100 mM NaCl, 5 mM MgCl2, 1 mM EDTA, 1 mM DTT, 0.5% NP-40, 10 ug/mL BSA, pH 7.5; immunoblot; both purified.
The target in test [3] is UBE3A (in HEK293T cells, co-immunoprecipitation) (human) (UniProt Q05086). The test can be described thus: co-IP; HEK293T cell lysate in Co-IP buffer (50 mM Tris-Cl pH 7.5, 150 mM NaCl, 5.0 mM EDTA, 1.0% NP-40); specific antibodies with protein G agarose beads or anti-Flag affinity gels; immunoblot. On the technique in general: Immunoblotting shows a protein as a band on a membrane.

The chains behind the UniProt entries cited, without tags or fusion partners.
UniProt Q05086: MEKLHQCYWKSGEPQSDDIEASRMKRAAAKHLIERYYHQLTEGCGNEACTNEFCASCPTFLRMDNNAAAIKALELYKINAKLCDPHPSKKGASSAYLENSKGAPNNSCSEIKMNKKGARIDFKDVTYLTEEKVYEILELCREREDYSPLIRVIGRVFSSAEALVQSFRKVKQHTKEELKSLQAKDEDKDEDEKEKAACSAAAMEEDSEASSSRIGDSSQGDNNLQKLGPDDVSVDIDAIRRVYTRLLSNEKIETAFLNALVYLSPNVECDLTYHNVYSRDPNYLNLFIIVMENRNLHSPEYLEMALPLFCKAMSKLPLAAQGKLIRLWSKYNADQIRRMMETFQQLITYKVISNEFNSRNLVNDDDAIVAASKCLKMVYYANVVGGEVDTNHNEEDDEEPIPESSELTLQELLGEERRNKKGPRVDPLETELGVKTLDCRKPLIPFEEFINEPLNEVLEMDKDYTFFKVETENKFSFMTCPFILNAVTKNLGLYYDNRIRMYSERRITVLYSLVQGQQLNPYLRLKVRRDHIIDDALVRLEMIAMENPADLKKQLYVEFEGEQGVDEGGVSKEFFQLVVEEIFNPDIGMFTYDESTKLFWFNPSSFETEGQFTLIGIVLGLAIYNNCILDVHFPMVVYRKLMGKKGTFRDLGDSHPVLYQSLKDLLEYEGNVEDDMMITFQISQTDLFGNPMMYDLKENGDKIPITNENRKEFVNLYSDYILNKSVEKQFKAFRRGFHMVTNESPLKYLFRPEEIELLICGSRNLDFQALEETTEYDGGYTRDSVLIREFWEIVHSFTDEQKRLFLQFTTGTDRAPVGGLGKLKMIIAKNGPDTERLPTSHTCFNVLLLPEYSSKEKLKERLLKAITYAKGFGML
UniProt O94874: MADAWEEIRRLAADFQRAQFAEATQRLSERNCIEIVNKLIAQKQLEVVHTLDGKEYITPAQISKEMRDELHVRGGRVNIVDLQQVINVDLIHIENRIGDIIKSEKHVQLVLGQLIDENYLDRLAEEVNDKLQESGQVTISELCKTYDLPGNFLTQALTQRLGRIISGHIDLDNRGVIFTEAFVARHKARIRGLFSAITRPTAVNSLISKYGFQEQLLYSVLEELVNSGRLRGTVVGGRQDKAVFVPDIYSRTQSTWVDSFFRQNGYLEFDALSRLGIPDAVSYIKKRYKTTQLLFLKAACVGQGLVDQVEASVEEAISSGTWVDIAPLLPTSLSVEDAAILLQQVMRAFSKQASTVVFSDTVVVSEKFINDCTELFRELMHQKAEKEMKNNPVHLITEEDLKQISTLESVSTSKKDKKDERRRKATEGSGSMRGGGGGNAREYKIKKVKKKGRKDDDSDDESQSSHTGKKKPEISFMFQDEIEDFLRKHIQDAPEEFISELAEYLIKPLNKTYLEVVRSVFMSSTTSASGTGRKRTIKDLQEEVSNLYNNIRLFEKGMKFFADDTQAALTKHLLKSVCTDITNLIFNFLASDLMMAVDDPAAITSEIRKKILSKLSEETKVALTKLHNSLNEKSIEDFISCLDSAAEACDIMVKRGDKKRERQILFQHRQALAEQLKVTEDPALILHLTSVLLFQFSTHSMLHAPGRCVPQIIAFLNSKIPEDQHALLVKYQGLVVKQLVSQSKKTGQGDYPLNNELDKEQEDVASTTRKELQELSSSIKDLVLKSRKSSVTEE

This is an account of results in PMC7352202.

No constants are given. Whether binding was seen depends on the method and setting. For some assays here: Binding seen in cells or lysates may run through a third protein. Some binding calls cover weakened binding; strength is not graded here. For some assays here: Sequences can lack the tags named with a protein.

B1: MCM6 (yeast two-hybrid prey, pDEST22) (protein, UniProt Q14566 1-821)
chain: MDLAAAAEPGAGSQHLEVRDEVAEKCQKLFLDFLEEFQSSDGEIKYLQLAEELIRPERNTLVVSFVDLEQFNQQLSTTIQEEFYRVYPYLCRALKTFVKDRKEIPLAKDFYVAFQDLPTRHKIRELTSSRIGLLTRISGQVVRTHPVHPELVSGTFLCLDCQTVIRDVEQQFKYTQPNICRNPVCANRRRFLLDTNKSRFVDFQKVRIQETQAELPRGSIPRSLEVILRAEAVESAQAGDKCDFTGTLIVVPDVSKLSTPGARAETNSRVSGVDGYETEGIRGLRALGVRDLSYRLVFLACCVAPTNPRFGGKELRDEEQTAESIKNQMTVKEWEKVFEMSQDKNLYHNLCTSLFPTIHGNDEVKRGVLLMLFGGVPKTTGEGTSLRGDINVCIVGDPSTAKSQFLKHVEEFSPRAVYTSGKASSAAGLTAAVVRDEESHEFVIEAGALMLADNGVCCIDEFDKMDVRDQVAIHEAMEQQTISITKAGVKATLNARTSILAAANPISGHYDRSKSLKQNINLSAPIMSRFDLFFILVDECNEVTDYAIARRIVDLHSRIEESIDRVYSLDDIRRYLLFARQFKPKISKESEDFIVEQYKHLRQRDGSGVTKSSWRITVRQLESMIRLSEAMARMHCCDEVQPKHVKEAFRLLNKSIIRVETPDVNLDQEEEIQMEVDEGAGGINGHADSPAPVNGINGYNEDINQESAPKASLRLGFSEYCRISNLIVLHLRKVEEEEDESALKRSELVNWYLKEIESEIDSEEELINKKRIIEKVIHRLTHYDHVLIELTQAGLKGSTEGSESYEEDPYLVVNPNYLLED
Regarding B1, the binding entry in test [1] is on record as “binds”.

B2: TSC22D3 (yeast two-hybrid prey, pDEST22) (protein, UniProt Q99576 1-134)
chain: MNTEMYQTPMEVAVYQLHNFSISFFSSLLGGDVVSVKLDNSASGASVVAIDNKIEQAMDLVKNHLMYAVREEVEILKEQIRELVEKNSQLERENTLLKTLASPEQLEKFQSCLSPEEPAPESPQVPEAPGGSAV
Consider B2, for which the binding entry in test [2] is listed as “binds”.

B3: TSC22D3-Flag-His6 (protein, UniProt Q99576 1-134)
chain: B2 chain
In the case of B3, the binding result with GST-UFL1 (human) is “binds”.

B4: ALDH1A2 (yeast two-hybrid prey, pDEST22) (enzyme, UniProt O94788 1-518)
chain: MTSSKIEMPGEVKADPAALMASLHLLPSPTPNLEIKYTKIFINNEWQNSESGRVFPVYNPATGEQVCEVQEADKADIDKAVQAARLAFSLGSVWRRMDASERGRLLDKLADLVERDRAVLATMESLNGGKPFLQAFYVDLQGVIKTFRYYAGWADKIHGMTIPVDGDYFTFTRHEPIGVCGQIIPWNFPLLMFAWKIAPALCCGNTVVIKPAEQTPLSALYMGALIKEAGFPPGVINILPGYGPTAGAAIASHIGIDKIAFTGSTEVGKLIQEAAGRSNLKRVTLELGGKSPNIIFADADLDYAVEQAHQGVFFNQGQCCTAGSRIFVEESIYEEFVRRSVERAKRRVVGSPFDPTTEQGPQIDKKQYNKILELIQSGVAEGAKLECGGKGLGRKGFFIEPTVFSNVTDDMRIAKEEIFGPVQEILRFKTMDEVIERANNSDFGLVAAVFTNDINKALTVSSAMQAGTVWINCYNALNAQSPFGGFKMSGNGREMGEFGLREYSEVKTVTVKIPQKNS
B4: in test [1], the binding result is on record as “binds”.

B5: ALDH1A2 (in HEK293T cells, co-immunoprecipitation) (enzyme, UniProt O94788 1-518)
chain: B4 chain
On to B5, for which the binding result in test [3] is given as “binds”.

B6: MSTO1 (yeast two-hybrid prey, pDEST22) (protein, UniProt Q9BUK6 1-570)
chain: MAGGAREVLTLQLGHFAGFVGAHWWNQQDAALGRATDSKEPPGELCPDVLYRTGRTLHGQETYTPRLILMDLKGSLSSLKEEGGLYRDKQLDAAIAWQGKLTTHKEELYPKNPYLQDFLSAEGVLSSDGVWRVKSIPNGKGSSPLPTATTPKPLIPTEASIRVWSDFLRVHLHPRSICMIQKYNHDGEAGRLEAFGQGESVLKEPKYQEELEDRLHFYVEECDYLQGFQILCDLHDGFSGVGAKAAELLQDEYSGRGIITWGLLPGPYHRGEAQRNIYRLLNTAFGLVHLTAHSSLVCPLSLGGSLGLRPEPPVSFPYLHYDATLPFHCSAILATALDTVTVPYRLCSSPVSMVHLADMLSFCGKKVVTAGAIIPFPLAPGQSLPDSLMQFGGATPWTPLSACGEPSGTRCFAQSVVLRGIDRACHTSQLTPGTPPPSALHACTTGEEILAQYLQQQQPGVMSSSHLLLTPCRVAPPYPHLFSSCSPPGMVLDGSPKGAAVESIPVFGALCSSSSLHQTLEALARDLTKLDLRRWASFMDAGVEHDDVAELLQELQSLAQCYQGGDSLVD
Take B6: the binding entry in test [1] is given as “binds”.

B7: CRP (yeast two-hybrid prey, pDEST22) (protein, UniProt P02741 1-224)
chain: MEKLLCFLVLTSLSHAFGQTDMSRKAFVFPKESDTSYVSLKAPLTKPLKAFTVCLHFYTELSSTRGYSIFSYATKRQDNEILIFWSKDIGYSFTVGGSEILFEVPEVTVAPVHICTSWESASGIVEFWVDGKPRVRKSLKKGYTVGAEASIILGQEQDSFGGNFEGSQSLVGDIGNVNMWDFVLSPDEINTIYLGGPFSPNVLNWRALKYEVQGEVFTKPQLWP
B7: the binding entry in test [1] is recorded as “binds”.

B8: IL24 (yeast two-hybrid prey, pDEST22) (protein, UniProt Q13007 1-206)
chain: MNFQQRLQSLWTLARPFCPPLLATASQMQMVVLPCLGFTLLLWSQVSGAQGQEFHFGPCQVKGVVPQKLWEAFWAVKDTMQAQDNITSARLLQQEVLQNVSDAESCYLVHTLLEFYLKTVFKNYHNRTVEVRTLKSFSTLANNFVLIVSQLQPSQENEMFSIRDSAHRRFLLFRRAFKQLDVEAALTKALGEVDILLTWMQKFYKL
In the case of B8, the binding entry in test [1] was “binds”.
